The values below come from the supplement of paper PMC10849652.

Amino acid sequences for entries named in this document (tags omitted). A change or cut given only in a name is not applied to a line headed by its entry.
UniProt P05198, whole entry, looked up: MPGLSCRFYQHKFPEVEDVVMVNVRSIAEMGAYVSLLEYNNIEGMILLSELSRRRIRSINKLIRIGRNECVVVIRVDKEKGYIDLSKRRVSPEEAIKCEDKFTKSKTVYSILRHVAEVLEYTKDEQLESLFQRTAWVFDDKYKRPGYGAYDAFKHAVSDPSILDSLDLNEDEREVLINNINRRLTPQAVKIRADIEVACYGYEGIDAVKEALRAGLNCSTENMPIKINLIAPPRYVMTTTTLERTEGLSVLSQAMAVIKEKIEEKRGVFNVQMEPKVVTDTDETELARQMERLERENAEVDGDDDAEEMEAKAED
UniProt Q14152, whole entry, looked up: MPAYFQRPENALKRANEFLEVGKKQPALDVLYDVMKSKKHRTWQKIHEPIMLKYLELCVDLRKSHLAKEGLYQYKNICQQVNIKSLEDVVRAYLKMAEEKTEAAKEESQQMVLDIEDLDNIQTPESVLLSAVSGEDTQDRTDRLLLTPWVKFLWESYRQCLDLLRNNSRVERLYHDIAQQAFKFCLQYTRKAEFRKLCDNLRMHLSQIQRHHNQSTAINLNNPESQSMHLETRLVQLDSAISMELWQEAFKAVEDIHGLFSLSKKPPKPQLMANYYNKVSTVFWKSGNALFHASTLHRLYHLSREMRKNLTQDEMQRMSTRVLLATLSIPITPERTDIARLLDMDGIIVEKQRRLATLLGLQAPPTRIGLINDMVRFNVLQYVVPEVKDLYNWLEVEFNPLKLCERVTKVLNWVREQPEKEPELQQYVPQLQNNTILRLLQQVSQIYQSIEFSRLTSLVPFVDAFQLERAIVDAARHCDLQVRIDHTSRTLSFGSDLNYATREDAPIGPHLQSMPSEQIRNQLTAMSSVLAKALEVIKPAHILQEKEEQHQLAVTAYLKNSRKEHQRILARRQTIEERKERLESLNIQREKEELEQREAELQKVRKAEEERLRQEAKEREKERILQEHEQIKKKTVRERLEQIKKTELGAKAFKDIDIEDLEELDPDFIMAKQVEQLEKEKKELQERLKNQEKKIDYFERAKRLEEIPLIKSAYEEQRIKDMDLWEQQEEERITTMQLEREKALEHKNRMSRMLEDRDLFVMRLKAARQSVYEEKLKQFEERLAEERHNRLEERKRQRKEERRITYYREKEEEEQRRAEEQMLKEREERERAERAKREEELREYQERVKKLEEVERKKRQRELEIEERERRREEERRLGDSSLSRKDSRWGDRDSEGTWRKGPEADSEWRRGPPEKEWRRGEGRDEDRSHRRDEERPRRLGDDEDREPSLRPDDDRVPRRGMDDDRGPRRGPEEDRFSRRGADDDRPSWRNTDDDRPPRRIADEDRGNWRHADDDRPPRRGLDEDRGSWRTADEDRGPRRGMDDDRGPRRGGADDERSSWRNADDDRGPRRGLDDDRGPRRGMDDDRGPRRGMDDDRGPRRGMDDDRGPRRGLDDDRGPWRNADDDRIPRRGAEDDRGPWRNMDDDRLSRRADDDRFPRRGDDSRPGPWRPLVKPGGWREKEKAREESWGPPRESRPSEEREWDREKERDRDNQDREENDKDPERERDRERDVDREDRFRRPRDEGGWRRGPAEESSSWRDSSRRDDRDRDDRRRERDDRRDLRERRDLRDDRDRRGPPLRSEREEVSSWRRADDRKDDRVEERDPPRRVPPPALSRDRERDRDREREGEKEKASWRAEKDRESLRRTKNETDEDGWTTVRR
UniProt Q9Y262, whole entry, looked up: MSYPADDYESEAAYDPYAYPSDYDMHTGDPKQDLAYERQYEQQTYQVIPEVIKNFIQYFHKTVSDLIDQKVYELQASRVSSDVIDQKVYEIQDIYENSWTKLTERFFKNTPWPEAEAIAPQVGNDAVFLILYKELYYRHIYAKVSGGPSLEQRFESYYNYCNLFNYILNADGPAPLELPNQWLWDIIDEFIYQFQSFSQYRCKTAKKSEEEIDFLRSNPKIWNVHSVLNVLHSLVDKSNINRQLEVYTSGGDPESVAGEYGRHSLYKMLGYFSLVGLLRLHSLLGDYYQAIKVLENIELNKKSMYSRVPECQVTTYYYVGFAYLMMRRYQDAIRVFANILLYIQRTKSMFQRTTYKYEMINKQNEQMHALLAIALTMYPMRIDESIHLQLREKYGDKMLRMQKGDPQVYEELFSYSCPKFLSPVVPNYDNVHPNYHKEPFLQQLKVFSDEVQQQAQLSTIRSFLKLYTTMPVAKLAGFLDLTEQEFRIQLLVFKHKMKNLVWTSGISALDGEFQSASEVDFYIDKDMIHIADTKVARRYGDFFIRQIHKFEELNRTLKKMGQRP
UniProt P49770: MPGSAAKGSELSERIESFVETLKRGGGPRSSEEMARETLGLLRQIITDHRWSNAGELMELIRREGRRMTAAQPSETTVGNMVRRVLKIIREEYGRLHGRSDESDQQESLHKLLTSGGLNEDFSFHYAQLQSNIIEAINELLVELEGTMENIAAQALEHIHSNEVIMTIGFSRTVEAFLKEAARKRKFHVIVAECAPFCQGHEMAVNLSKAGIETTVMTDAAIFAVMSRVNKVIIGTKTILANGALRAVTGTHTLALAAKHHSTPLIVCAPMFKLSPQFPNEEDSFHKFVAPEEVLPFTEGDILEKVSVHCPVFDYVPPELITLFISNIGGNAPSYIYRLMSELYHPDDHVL
UniProt Q9BV81: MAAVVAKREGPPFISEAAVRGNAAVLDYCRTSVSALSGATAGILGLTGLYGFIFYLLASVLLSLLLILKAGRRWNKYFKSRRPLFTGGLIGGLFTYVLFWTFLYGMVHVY
UniProt P23588, whole entry, looked up: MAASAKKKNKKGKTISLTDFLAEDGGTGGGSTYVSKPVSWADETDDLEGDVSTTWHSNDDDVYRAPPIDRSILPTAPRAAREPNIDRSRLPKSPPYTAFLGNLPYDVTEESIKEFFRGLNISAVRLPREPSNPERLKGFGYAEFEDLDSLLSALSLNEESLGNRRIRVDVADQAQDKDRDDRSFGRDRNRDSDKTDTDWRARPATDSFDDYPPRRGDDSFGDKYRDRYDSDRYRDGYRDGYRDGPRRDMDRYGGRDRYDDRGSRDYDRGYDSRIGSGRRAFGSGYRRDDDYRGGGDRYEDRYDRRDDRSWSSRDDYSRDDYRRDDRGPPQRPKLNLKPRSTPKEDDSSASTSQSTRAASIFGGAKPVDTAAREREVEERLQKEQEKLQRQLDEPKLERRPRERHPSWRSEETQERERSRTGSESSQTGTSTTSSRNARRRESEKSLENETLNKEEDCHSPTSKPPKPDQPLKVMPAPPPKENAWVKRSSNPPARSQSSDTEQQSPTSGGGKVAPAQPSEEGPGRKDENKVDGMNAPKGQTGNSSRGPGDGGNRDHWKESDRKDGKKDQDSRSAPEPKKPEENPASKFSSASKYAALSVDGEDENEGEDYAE
UniProt Q8IZ81: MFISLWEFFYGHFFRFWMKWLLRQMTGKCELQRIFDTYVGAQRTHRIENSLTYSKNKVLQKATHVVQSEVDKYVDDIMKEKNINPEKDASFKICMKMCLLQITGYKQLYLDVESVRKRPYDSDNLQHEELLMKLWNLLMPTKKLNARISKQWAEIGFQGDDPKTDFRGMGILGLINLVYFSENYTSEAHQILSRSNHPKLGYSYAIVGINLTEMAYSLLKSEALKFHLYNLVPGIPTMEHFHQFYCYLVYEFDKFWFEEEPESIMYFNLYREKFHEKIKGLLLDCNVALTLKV
UniProt Q96KQ7: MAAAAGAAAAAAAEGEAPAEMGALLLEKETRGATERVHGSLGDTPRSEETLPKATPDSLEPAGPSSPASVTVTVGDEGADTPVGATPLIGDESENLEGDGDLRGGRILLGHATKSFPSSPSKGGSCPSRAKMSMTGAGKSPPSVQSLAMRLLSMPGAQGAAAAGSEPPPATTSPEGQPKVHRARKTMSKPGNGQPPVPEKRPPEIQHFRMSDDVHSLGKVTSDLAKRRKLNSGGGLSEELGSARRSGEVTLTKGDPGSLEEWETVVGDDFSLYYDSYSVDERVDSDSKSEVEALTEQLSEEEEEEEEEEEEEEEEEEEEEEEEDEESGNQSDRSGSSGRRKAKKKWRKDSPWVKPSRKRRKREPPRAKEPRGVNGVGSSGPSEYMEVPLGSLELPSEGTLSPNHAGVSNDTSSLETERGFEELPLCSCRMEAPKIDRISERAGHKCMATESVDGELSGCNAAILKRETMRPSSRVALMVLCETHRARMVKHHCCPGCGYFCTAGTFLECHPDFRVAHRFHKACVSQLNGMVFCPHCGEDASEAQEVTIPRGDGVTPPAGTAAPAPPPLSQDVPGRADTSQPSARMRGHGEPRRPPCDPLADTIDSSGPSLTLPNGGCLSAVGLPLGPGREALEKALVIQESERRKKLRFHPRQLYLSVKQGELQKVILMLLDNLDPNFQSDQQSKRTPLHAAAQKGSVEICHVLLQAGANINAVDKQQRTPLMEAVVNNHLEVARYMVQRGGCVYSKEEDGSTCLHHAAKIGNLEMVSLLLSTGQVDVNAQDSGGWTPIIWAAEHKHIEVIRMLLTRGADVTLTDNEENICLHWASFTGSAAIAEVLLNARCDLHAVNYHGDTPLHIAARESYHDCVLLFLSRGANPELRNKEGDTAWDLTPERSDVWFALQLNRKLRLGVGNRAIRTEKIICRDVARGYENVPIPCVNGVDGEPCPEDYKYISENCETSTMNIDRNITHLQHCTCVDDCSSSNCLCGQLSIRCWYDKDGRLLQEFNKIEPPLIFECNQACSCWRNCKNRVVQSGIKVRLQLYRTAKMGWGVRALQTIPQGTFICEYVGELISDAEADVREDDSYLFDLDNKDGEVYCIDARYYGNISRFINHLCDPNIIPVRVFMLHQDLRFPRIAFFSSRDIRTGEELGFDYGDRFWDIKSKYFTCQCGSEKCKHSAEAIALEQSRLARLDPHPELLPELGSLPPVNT
UniProt O15371, whole entry, looked up: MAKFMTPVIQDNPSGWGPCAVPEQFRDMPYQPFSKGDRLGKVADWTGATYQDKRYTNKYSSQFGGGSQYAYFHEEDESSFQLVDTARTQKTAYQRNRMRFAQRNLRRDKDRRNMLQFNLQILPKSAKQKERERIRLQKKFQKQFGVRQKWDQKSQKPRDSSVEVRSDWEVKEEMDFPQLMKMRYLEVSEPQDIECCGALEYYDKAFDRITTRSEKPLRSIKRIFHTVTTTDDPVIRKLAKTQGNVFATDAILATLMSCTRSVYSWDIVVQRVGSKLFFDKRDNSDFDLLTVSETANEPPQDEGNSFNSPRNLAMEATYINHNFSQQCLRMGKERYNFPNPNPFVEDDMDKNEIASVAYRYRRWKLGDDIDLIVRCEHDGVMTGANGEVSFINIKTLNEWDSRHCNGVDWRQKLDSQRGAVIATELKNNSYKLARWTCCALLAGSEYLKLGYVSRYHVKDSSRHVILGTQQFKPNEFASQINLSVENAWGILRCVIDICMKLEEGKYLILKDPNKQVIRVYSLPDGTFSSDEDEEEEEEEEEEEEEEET
UniProt O75821, whole entry, looked up: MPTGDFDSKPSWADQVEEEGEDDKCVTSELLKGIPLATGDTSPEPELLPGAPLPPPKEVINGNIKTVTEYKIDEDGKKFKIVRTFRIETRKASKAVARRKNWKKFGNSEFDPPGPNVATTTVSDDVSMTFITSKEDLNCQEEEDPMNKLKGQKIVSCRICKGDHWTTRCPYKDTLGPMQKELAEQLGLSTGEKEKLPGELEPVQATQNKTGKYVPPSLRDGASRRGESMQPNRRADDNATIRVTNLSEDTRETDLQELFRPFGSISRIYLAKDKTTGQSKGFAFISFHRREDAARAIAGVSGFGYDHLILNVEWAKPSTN
UniProt P09104, whole entry, looked up: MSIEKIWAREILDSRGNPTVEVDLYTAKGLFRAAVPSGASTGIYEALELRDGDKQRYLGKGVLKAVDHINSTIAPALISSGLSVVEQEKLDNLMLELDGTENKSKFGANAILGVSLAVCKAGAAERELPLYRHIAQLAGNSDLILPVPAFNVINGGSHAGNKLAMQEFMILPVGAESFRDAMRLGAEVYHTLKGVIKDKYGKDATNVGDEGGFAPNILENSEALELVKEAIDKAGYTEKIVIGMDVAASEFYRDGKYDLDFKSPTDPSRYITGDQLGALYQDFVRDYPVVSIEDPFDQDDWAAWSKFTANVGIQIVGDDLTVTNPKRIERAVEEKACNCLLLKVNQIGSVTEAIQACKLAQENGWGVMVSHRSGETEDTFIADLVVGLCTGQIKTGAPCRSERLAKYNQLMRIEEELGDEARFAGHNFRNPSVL
UniProt P60228, whole entry, looked up: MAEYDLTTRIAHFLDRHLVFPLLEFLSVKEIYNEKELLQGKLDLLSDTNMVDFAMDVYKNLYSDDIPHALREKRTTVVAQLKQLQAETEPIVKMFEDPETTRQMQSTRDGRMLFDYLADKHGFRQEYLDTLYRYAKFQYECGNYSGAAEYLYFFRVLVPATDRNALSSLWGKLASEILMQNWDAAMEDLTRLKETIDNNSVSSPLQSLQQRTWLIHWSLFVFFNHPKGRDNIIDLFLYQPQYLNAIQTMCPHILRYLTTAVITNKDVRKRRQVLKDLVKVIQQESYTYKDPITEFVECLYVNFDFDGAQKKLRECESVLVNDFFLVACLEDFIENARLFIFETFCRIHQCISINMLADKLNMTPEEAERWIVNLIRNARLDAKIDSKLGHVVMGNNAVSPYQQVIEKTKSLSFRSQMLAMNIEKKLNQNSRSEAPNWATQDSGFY

The other results are listed elsewhere or left out.

Compound in the first experiment: C1CN(CCC1(CC2=CC=C(C=C2)Cl)N)C3=NC=NC4=C3C=CN4
Nature of the experiment: log2 fold change, soluble protein after heating vs DMSO (PISA); higher = thermal stabilisation; K562 cells, 10 uM, 30 min; active = over 0.2 and 3.5 SD of the protein, either way, in both replicates (recomputed). The procedure, abridged:
(§1)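 Values are thermal stability changes relative to control samples and are taken from duplicates. They are stated as log2 fold changes. Before quantification by TMTpro 16plex LC-MS/MS with equalised channel sums, K562 cells at 2×10^6 cells/mL were treated with 10 μM compound for 30 min, heated in aliquots for 3 min across 48°C-58°C, pooled, extracted in PBS with 0.5% NP-40 at 4°C, and centrifuged at 21,000xg for 90 min to give the soluble supernatant.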
EMC7 (UniProt Q9NPA0): the log2 fold change was inactive: -0.009.
On the same count and under the same terms, the same measure for EIF2S1 (UniProt P05198): inactive: -0.052; for EIF3A (UniProt Q14152): inactive: -0.132; for EIF2B3 (UniProt Q9NR50): inactive: -0.06.
Still for that read-out and setting: the same measure for ENO3 (UniProt P13929): inactive: 0.065.
On to EIF3L (UniProt Q9Y262), for which the log2 fold change is inactive: 0.
For EPB41 (UniProt P11171), the log2 fold change is inactive: -0.016.
On the same count and under the same terms, the same measure for EIF2B2 (UniProt P49770): inactive: -0.054.
With ENSA isoform 3 (UniProt O43768), the log2 fold change was inactive: 0.039.
On the same count and under the same terms, the same measure for ELP2 isoform 6 (UniProt Q6IA86): inactive: -0.004; for EIF1AX (UniProt P47813): inactive: -0.052; for EMC6 (UniProt Q9BV81): inactive: 0.036.
Same read-out and setting: the same measure for EIF4B (UniProt P23588): inactive: 0.037.
For the target EIF3H (UniProt O15372), the log2 fold change is inactive: -0.068.
For EEFSEC (UniProt P57772), the log2 fold change is inactive: 0.03.
Still for that read-out and setting: the same measure for ELP4 (UniProt Q96EB1): inactive: 0.055; for ELMOD2 (UniProt Q8IZ81): inactive: 0.012.
Same read-out and setting: the same measure for EML3 isoform 2 (UniProt Q32P44): inactive: -0.101; for ELOB (UniProt Q15370): inactive: 0.006.
Same read-out and setting: under EEF2 (UniProt P13639) stands inactive: 0.032.
EI24 (UniProt O14681): the log2 fold change is inactive: 0.066.
On the same count and under the same terms, under EHMT2 (UniProt Q96KQ7) stands inactive: -0.02; under EIF1 (UniProt P41567), inactive: 0.024.
Still for that read-out and setting: under EIF3D (UniProt O15371) stands inactive: -0.047.
Still for that read-out and setting: the same measure for ENDOG (UniProt Q14249): inactive: 0.071.
As to EIF3G (UniProt O75821), the log2 fold change is inactive: -0.022.
On to ELP6 (UniProt Q0PNE2), for which the log2 fold change is inactive: 0.041.
In the case of ENO2 (UniProt P09104), the log2 fold change is inactive: -0.004.
Same read-out and setting: under EIF3E (UniProt P60228) stands inactive: -0.171; under EHHADH (UniProt Q08426), inactive: 0.016.
The same measure, in the same setting: under EP300 (UniProt Q09472) stands inactive: 0.068; under EIF2D (UniProt P41214), inactive: -0.198; under EMP3 (UniProt P54852), inactive: 0.138.
Still for that read-out and setting: the same measure for EFNB1 (UniProt P98172): inactive: 0.133.

Compound in a further experiment: C1COCCN1CCN2C3=CC=CC=C3N=C2NC(=O)C4=CC(=CC=C4)[N+](=O)[O-] [IRAK-1-4 Inhibitor I]
The experiment is described as above. The procedure, abridged: as §1
EMC7 (UniProt Q9NPA0): the log2 fold change was inactive: 0.029.
Regarding EIF2S1 (UniProt P05198), the log2 fold change was inactive: -0.116.
Still for that read-out and setting: the same measure for EIF3A (UniProt Q14152): inactive: -0.191; for EIF2B3 (UniProt Q9NR50): inactive: -0.024.
Still for that read-out and setting: the same measure for ENO3 (UniProt P13929): inactive: 0.025; for EIF3L (UniProt Q9Y262): inactive: 0.038.
Turning to EPB41 (UniProt P11171), the log2 fold change was inactive: 0.011.
Still for that read-out and setting: under EIF2B2 (UniProt P49770) stands inactive: 0.002; under ENSA isoform 3 (UniProt O43768), inactive: 0.086.
On the same count and under the same terms, the same measure for ELP2 isoform 6 (UniProt Q6IA86): inactive: 0.003; for EIF1AX (UniProt P47813): inactive: 0.051; for EMC6 (UniProt Q9BV81): inactive: -0.207.
The same measure, in the same setting: the same measure for EIF4B (UniProt P23588): inactive: -0.01; for EIF3H (UniProt O15372): inactive: -0.069.
Take EEFSEC (UniProt P57772): the log2 fold change is inactive: 0.001.
The same measure, in the same setting: the same measure for ELP4 (UniProt Q96EB1): inactive: -0.007.
Still for that read-out and setting: the same measure for ELMOD2 (UniProt Q8IZ81): inactive: 0.048; for EML3 isoform 2 (UniProt Q32P44): inactive: -0.01; for ELOB (UniProt Q15370): inactive: 0.011.
For EEF2 (UniProt P13639), the log2 fold change is inactive: 0.034.
Still for that read-out and setting: under EI24 (UniProt O14681) stands inactive: 0.001.
The same measure, in the same setting: the same measure for EHMT2 (UniProt Q96KQ7): inactive: -0.09; for EIF1 (UniProt P41567): inactive: 0.074.
On the same count and under the same terms, under EIF3D (UniProt O15371) stands inactive: -0.179.
Regarding ENDOG (UniProt Q14249), the log2 fold change is inactive: -0.034.
On the same count and under the same terms, the same measure for EIF3G (UniProt O75821): inactive: -0.023; for ELP6 (UniProt Q0PNE2): inactive: 0.023.
The same measure, in the same setting: under ENO2 (UniProt P09104) stands inactive: 0.028; under EIF3E (UniProt P60228), inactive: -0.286; under EHHADH (UniProt Q08426), inactive: -0.029.
The same measure, in the same setting: under EP300 (UniProt Q09472) stands inactive: 0.128.
On to EIF2D (UniProt P41214), for which the log2 fold change was inactive: -0.188.
On the same count and under the same terms, under EMP3 (UniProt P54852) stands inactive: -0.016; under EFNB1 (UniProt P98172), inactive: -0.099.

Compound in another experiment: C=CC(=O)N1CCC[C@@H](n2nc(-c3ccc(Oc4ccccc4)cc3)c3c(N)ncnc32)C1 [ibrutinib]
The experiment is described as above. The procedure, abridged:
as §1
Take EMC7 (UniProt Q9NPA0): the log2 fold change is inactive: -0.01.
For the target EIF2S1 (UniProt P05198), the log2 fold change was inactive: 0.002.
As for EIF3A (UniProt Q14152), the log2 fold change was inactive: -0.029.
Still for that read-out and setting: under EIF2B3 (UniProt Q9NR50) stands inactive: -0.009.
The same measure, in the same setting: under ENO3 (UniProt P13929) stands inactive: 0.088; under EIF3L (UniProt Q9Y262), inactive: -0.002; under EPB41 (UniProt P11171), inactive: -0.011.
Consider EIF2B2 (UniProt P49770), for which the log2 fold change is inactive: -0.016.
On the same count and under the same terms, under ENSA isoform 3 (UniProt O43768) stands inactive: 0.002.
As to ELP2 isoform 6 (UniProt Q6IA86), the log2 fold change is inactive: 0.013.
The same measure, in the same setting: the same measure for EIF1AX (UniProt P47813): inactive: -0.043.
Same read-out and setting: the same measure for EMC6 (UniProt Q9BV81): inactive: 0.021; for EIF4B (UniProt P23588): inactive: -0.026; for EIF3H (UniProt O15372): inactive: -0.064.
Same read-out and setting: under EEFSEC (UniProt P57772) stands inactive: 0.057; under ELP4 (UniProt Q96EB1), inactive: 0.062.
As for ELMOD2 (UniProt Q8IZ81), the log2 fold change is inactive: 0.001.
Regarding EML3 isoform 2 (UniProt Q32P44), the log2 fold change was inactive: 0.074.
The same measure, in the same setting: the same measure for ELOB (UniProt Q15370): inactive: -0.03; for EEF2 (UniProt P13639): inactive: 0.003.
Still for that read-out and setting: the same measure for EI24 (UniProt O14681): inactive: 0.018; for EHMT2 (UniProt Q96KQ7): inactive: -0.034; for EIF1 (UniProt P41567): inactive: 0.074.
On to EIF3D (UniProt O15371), for which the log2 fold change was inactive: -0.038.
With ENDOG (UniProt Q14249), the log2 fold change was inactive: -0.05.
Same read-out and setting: the same measure for EIF3G (UniProt O75821): inactive: -0.044; for ELP6 (UniProt Q0PNE2): inactive: -0.015.
As to ENO2 (UniProt P09104), the log2 fold change is inactive: 0.066.
Turning to EIF3E (UniProt P60228), the log2 fold change was inactive: -0.05.
On the same count and under the same terms, under EHHADH (UniProt Q08426) stands inactive: 0.014; under EP300 (UniProt Q09472), inactive: 0.048; under EIF2D (UniProt P41214), inactive: -0.026.
Same read-out and setting: under EMP3 (UniProt P54852) stands inactive: 0.025; under EFNB1 (UniProt P98172), inactive: 0.031.
